Reference: PubChem BioAssay AID652054 (National Center for Advancing Translational Sciences (NCATS), 2013)
Where “and” joins values, the source holds several entries; their conditions need not be identical. Identical values can stand only once. Hit rate of the full screen: of about 360,000 compounds, about 9,100 (2.5%) were called active. This list was built around the results that the source calls inconclusive (neither active nor inactive); the mix of calls is not that of the screen. No stated cut-off is given here; in the data, active means max response below about -50%; inconclusive means no clear call, values can overlap the other calls; inactive means above that.

Protein sequences, listed by entry. Tags and fused reporters are not part of them.
UniProt P35462, whole entry, looked up: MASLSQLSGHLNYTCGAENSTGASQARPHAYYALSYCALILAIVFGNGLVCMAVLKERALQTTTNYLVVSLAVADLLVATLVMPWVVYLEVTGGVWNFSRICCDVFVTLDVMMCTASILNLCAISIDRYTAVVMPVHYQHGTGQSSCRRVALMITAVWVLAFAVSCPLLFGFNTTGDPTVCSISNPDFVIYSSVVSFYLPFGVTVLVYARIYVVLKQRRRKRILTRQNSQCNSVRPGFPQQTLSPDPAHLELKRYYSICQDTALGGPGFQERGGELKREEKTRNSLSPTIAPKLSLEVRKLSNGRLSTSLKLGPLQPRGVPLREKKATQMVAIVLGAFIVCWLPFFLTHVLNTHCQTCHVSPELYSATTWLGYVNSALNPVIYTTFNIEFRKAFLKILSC

Target: D(3) dopamine receptor (Homo sapiens) (UniProt P35462)
Test: qHTS of D3 Dopamine Receptor Antagonist: qHTS
Settings: D3R cells, DiscoveRx beta-arrestin luminescence, antagonist mode; active compounds read low
Summary of the method: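 Cells plated overnight at 1500 cells/well, then exposed to library compounds with dopamine controls for 90 minutes at 37 degrees C. DiscoveRx reagent added for 30–60 minutes at room temperature; luminescence read, quantitative HTS format.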
On the % scale 0 is the no-effect control and ±100 the full control effect.

| Structure (SMILES) | max response, negative = inhibition |
| --- | --- |
| O=c1c2ccccc2ncn1-c1ccc(Cl)cc1Cl | inactive: 1.35% |
| COc1ccc2nc(SCC(=O)NCc3ccc4c(c3)OCO4)[nH]c2c1 | inconclusive: -33.8% |
| Cc1cc(C)nc(-n2nc(C)c3c(C(F)F)cc(C)nc32)n1 | inconclusive: -35.2% |
| C[n+]1c2cc(N)ccc2cc2ccc(N)cc21 | inconclusive: -40.1% and inconclusive: -38.3% |
| O=C(N/N=C/c1ccccn1)C1CC1 | inactive: -0.15% |
| CCc1ccc(NC(=O)Cn2ccn(-c3cccc(Cl)c3)c(=O)c2=O)cc1 | inconclusive: -37.2% |
| O=C1NC(c2ccc(Cl)c([N+](=O)[O-])c2)Nc2ccccc21 (configuration not stated) | inconclusive: -40.9% |
| COc1ccc(C(CNC(=O)c2cccc(S(=O)(=O)N3CCc4ccccc43)c2)N(C)C)cc1 (configuration not stated) | inconclusive: -44.2% |
| O=S(=O)(NC1CC2CCC1C2)c1ccc(Br)cc1 (configuration not stated) | inactive: 3.19% |
| CC(CN1CCCCC1)OC(=O)/C=C/c1ccccc1 (configuration not stated) | active: -61.2% |
| CCNC(=S)Nc1ccc(Cl)c(C(F)(F)F)c1 | inactive: -13.6% |
| CC(=O)C1=C(C)NC(C)=C(C(C)=O)C1c1cccs1 | inconclusive: -34.6% |
| CC(CCc1ccccc1)NC(=O)COC(=O)c1cc(NS(=O)(=O)c2ccc(Cl)c([N+](=O)[O-])c2)ccc1O (configuration not stated) | inactive: -28.3% |
| COc1ccc(-c2coc3cc(OC)ccc3c2=O)cc1 | inactive: -8.1% |
| O=C(NN1CC(=O)N(c2cc(Cl)cc(Cl)c2)CC1=O)c1sccc1Cl | inconclusive: -36.2% |
| CCN(CC)S(=O)(=O)c1cc(NC(=O)Cn2ncc(Cl)c(Cl)c2=O)ccc1C | inconclusive: -33.6% |
| Cn1c(-c2ccc(-c3ccccc3)cc2)c[nH]c1=S | inconclusive: -37.8% |
| O=C(c1ccccc1)N1CCCC(C(=O)N2CCc3ccccc3C2)C1 (configuration not stated) | inconclusive: -31.7% |
| Cn1c(=O)n(Cc2ccccc2)c(=O)c2c1nc1n2CCCN1CCc1ccccc1 | inactive: 16.8% |
| Cc1cc(C)c2c(SC(C)C)nc(N)nc2n1 | inactive: -23.2% |
| COc1ccccc1/C=N/NC(=O)c1ccccc1Cl | inactive: -21.3% |
| CSc1ccc(CN2CCC(C)(Oc3cccc(C#N)c3)C2)cc1 (configuration not stated) | inconclusive: -38.5% |

| Structure (SMILES) | max response, negative = inhibition |
| --- | --- |
| O=C(Nc1ccc(NS(=O)(=O)c2ccccc2)c(Cl)c1)c1ccccc1 | inconclusive: -40.6% |
| Cc1ccc([N+](=O)[O-])cc1S(=O)(=O)N1CCCC1 | inconclusive: -31% |
| CCOC(=O)[C@]12CCCC=C1N(Cc1cccc3ccccc13)C(=O)[C@H](CC(=O)N1CCOCC1)C2 | inactive: -6.08% |
| COc1ccc(NC(=O)c2ccc(-c3ccccc3C(F)(F)F)o2)cc1 | inconclusive: -39.6% |
| COc1ccc(CNCC(O)COc2cccc3c2OC(C)(C)C3)cc1 (configuration not stated) | inconclusive: -35.5% |
| O=C(NCCN1CCC(n2c(=O)[nH]c3ccccc32)CC1)c1ccc(F)c(C(F)(F)F)c1 | active: -83.8% |
| CCCCC(=O)Nc1nnc(S(=O)(=O)N2CCCc3ccccc32)s1 | inconclusive: -34.1% |
| Cc1nn(S(=O)(=O)c2ccccc2)c(C)c1Sc1ccc([N+](=O)[O-])cc1 | active: -80.1% |
| Cc1ccc(N2CCN(/N=C/C3=C(N4CCOCC4)C(=C\c4ccccc4)/CC3)CC2)cc1 | inactive: 12.5% |
| COc1ccc([C@@H]2CC=C(C(=O)O)[C@H](c3ccc(F)cc3)N2S(=O)(=O)c2ccccc2C)cc1 | inconclusive: -36.8% |
| Cc1ccc(S(=O)c2ccc([N+](=O)[O-])c3nonc23)cc1 (configuration not stated) | inconclusive: -37.2% |
| Cc1nc(Nc2ccccc2F)c2nnn(Cc3ccccc3Cl)c2n1 | inconclusive: -49.5% |
| CC(=O)c1cc2c(cc1NC(=O)CSc1ncccn1)OCO2 | inconclusive: -45.8% |
| O=C(CCc1nc2ccccc2c(=O)[nH]1)N1CCN(C/C=C/c2ccccc2)CC1 | inactive: -15.6% |
| CCOc1ccc(CC(=O)N2CCN=C2SC)cc1 | inconclusive: -31.5% |
| CCCCOc1ccc(-c2ncc(Cl)cn2)cc1 | inconclusive: -31.3% |
| COc1ccc(C(=O)O)cc1S(=O)(=O)Nc1ccc(N2CCCCC2)cc1 | inactive: -10.2% |
| NC(=O)c1cccc(-c2ccnc3c2CC(C(=O)NCc2ccco2)O3)c1 (configuration not stated) | inconclusive: -40.4% |
| CCCc1cc(=O)oc2cc(C)cc(OCC(=O)Nc3ccc(CN4CCOCC4)cc3)c12 | inactive: -9.18% |
| COc1ccc(CN2C(=O)C(CC(=O)NCCc3ccccn3)CC(C(=O)N(C(C)C)C(C)C)=C2C)cc1 (configuration not stated) | inactive: -12.6% |
| CC(C)(C)OC(=O)N[C@H](/C=C/c1ccccc1)C(=O)OC(C)(C)C | inconclusive: -40.7% |
| O=C(c1ccc(Cl)cc1)c1ccc(OCC(O)CN2CCOCC2)cc1 (configuration not stated) | inconclusive: -46.5% |

| Structure (SMILES) | max response, negative = inhibition |
| --- | --- |
| CN(C)CCCNC(=O)N1c2ccccc2C=Cc2ccccc21 | active: -52.5% |
| Cn1c(=O)c(C(=O)NC2CCCCCCC2)c(O)c2ccccc21 | inactive: 5.2% |
| COc1cccc(C(C)(O)c2nc(-c3cnn(C)c3)cs2)c1 (configuration not stated) | inconclusive: -33% |
| O=C(Nc1cccc(S(=O)(=O)Nc2ccccc2Cl)c1)c1ccc(Cl)nc1 | inactive: 15.3% |
| Cc1nc(NC(C)c2ccccc2)sc1C(=O)Nc1ccccc1 (configuration not stated) | inactive: -25.6% |
| CCn1c(SCC(=O)NCCc2ccc(F)cc2)nnc1-c1cccs1 | inconclusive: -39.1% |
| CCN1CCN(CCOc2cccc(Cl)c2Cl)CC1 | inconclusive: -35.1% |
| O=C(NNc1ccnc2cc(Cl)ccc12)C1CCCCC1 | inactive: -5.9% |
| COCCCNC(=O)CCn1c(=O)c2ccccc2n(CC(=O)Nc2c(C)cccc2C)c1=O | inconclusive: -43.2% |
| CCCc1ccc(C(O)c2ncc(-c3ccccc3)[nH]2)cc1 (configuration not stated) | inactive: 3.86% |
| COc1ccc(-c2cc(=O)oc3c(C)c(OCc4nn[nH]n4)ccc23)cc1 | inconclusive: -42.8% |
| CC(=O)c1ccc(N2CCN(C(=S)Nc3ccc(Oc4ccccc4)cc3)CC2)cc1 | inconclusive: -44.4% |
| CCN=c1sc(C(=O)OC)cc(=O)n1CC | inactive: -10.7% |
| COc1ccc(CN2CCN(Cc3ccccc3)C(CCO)C2)cc1OC (configuration not stated) | active: -71.9% |
| Cc1cc(Cl)c(S(=O)(=O)NCc2cccnc2)cc1OCC(=O)NC1CCCCC1 | inconclusive: -46.1% |
| CCN(CC)c1ccc(NC(=O)Nc2ccc(C(C)=O)cc2)cc1 | inconclusive: -30.6% |
| COc1ccc2c(c1)C1NC(=S)NC(C)(O2)C1C(=O)Nc1ccc(Cl)cc1 (configuration not stated) | inconclusive: -39.2% |
| CC1=Nn2c(nc(-c3ccccc3)c2-c2ccccc2)N(CC(N)=O)C(=O)C1 | inconclusive: -38.4% |
| Cc1cccc(N(Cc2ccccc2)C(=O)CN2C(=O)NC3(CCCCC3C)C2=O)c1 (configuration not stated) | inactive: -9.33% |
| CC(NCc1ccc(N(C)C)cc1)C1CC2CCC1C2 (configuration not stated) | active: -70.3% |

| Structure (SMILES) | max response, negative = inhibition |
| --- | --- |
| CCN(CC)CCNC(=O)c1cc(Cl)c(N)cc1OC | active: -117% |
| COC(=O)CSc1nnc2n1C(C)(C)Cc1ccccc1-2 | inactive: 16.2% |
| O=S(=O)(c1cccs1)N1CCN(C/C=C/c2ccccc2)CC1 | inconclusive: -33.4% |
| COc1ccc(S(=O)(=O)N/N=c2\oc3c(OC)cccc3cc2S(=O)(=O)c2ccc(C)cc2)cc1OC | inactive: 1.86% |
| O=C(Cn1c(CC(=O)N2CCOCC2)nc2ccccc21)Nc1ccc2c(c1)OC(F)(F)O2 | inconclusive: -33.6% |
| CC(=O)Nc1ccc(NC(=O)C(C)OC(=O)C2CC3C=CC2C3)cc1 (configuration not stated) | inconclusive: -35% |
| O=C(NCCOc1ccccc1)c1cncc(Br)c1 | inconclusive: -32.8% |
| CCN1CCN(C(=O)/C=C/c2ccc(C(C)C)cc2)CC1 | inconclusive: -37.6% |
| O=C(CCN1CCCCC1)c1ccc2c(c1)OCCO2 | inconclusive: -49.9% |
| CCC(/C=C1\Sc2ccc(OC)cc2N1CCO)=C\c1sc2ccc(OC)cc2[n+]1CCO | inconclusive: -39.5% |
| CC(=O)/C(C(=N)N1CCN(C(c2ccccc2)c2ccccc2)CC1)=C(\C)O | inconclusive: -31.3% |
| C/C(=N\NC(=O)c1ccc(Cl)cc1)c1cccc(NC(=O)C(C)C)c1 | inconclusive: -35.5% |
| COc1cccc(-n2c(CN3CCN(c4ccc(C)cc4)C(C)C3)nc3ccc([N+](=O)[O-])cc3c2=O)c1 (configuration not stated) | inconclusive: -34.7% |
| COc1ccc2cc(CNCCOCCOCCNCc3ccc4cc(OC)ccc4c3)ccc2c1 | inconclusive: -30.3% |
| c1cncc(CNc2nc(-c3cccnc3)nc3ccccc23)c1 | inactive: 0.307% |
| CCOc1ccccc1N=c1oc2cc(O)ccc2cc1C(=O)NCC1CCCO1 (configuration not stated) | inconclusive: -32.2% |
| COc1cc(/C=C/C(=O)c2ccc(O)cc2)ccc1OCC#N | inconclusive: -40.7% |
| COc1ccc(N2CCN(C(=O)c3ccccc3NS(=O)(=O)c3ccc(C)cc3)CC2)cc1 | inconclusive: -38.9% |
| Cc1ccc(NNC(=O)c2ccno2)cc1Cl | inconclusive: -30.6% |
| O=C(CSCc1ccccc1)N=Nc1c(O)[nH]c2ccccc12 | inactive: 0% |
